# The supplement of paper PMC8007513
# Some of the results follow. Most values come without repeats; read them as rough.
# Tested on: Saccharomyces cerevisiae BY4743
# Experiment: growth (OD600) with compound + IPBC relative to untreated control; higher = less growth inhibition
# Conditions: compound concentration: 133 uM; IPBC concentration: 0.5 ug/ml; 20 h
# Procedure: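 NMCCC compounds (133 uM) combined with IPBC (0.5 ug/ml) against Saccharomyces cerevisiae BY4743 in YPD, 96-well plates. Growth was read as OD600 at 20 h and expressed as % of the untreated control. Single pass.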
row,Structure (SMILES),growth
1,CC(=O)c1ccc(S(=O)(=O)NCc2csc(-c3ccccc3)n2)cc1 + CCCCNC(=O)OCC#CI [3-iodo-2-propynyl butylcarbamate (IPBC)],103%
2,CC(C)COC(=O)Nc1nnc(/C=C/c2ccccc2)s1 + CCCCNC(=O)OCC#CI [3-iodo-2-propynyl butylcarbamate (IPBC)],91.3%
3,COC(=O)c1cc(CNC(=O)CSCc2c(C)noc2C)ccc1OC + CCCCNC(=O)OCC#CI [3-iodo-2-propynyl butylcarbamate (IPBC)],97.2%
4,CCOc1ccc(S(=O)(=O)N2CCOCC2)cc1NC(=O)CCc1ccsc1 + CCCCNC(=O)OCC#CI [3-iodo-2-propynyl butylcarbamate (IPBC)],101%
5,CC(=O)c1c(C)[nH]c(C(=O)N2CCN(Cc3ccc(C#N)cc3)CC2)c1C + CCCCNC(=O)OCC#CI [3-iodo-2-propynyl butylcarbamate (IPBC)],88.7%
6,COc1cc(CNC(=O)c2ncoc2-c2cccs2)cc(OC)c1OC + CCCCNC(=O)OCC#CI [3-iodo-2-propynyl butylcarbamate (IPBC)],86.9%
7,COC(=O)c1cc(C)nc2c1cnn2-c1ccc(F)cc1 + CCCCNC(=O)OCC#CI [3-iodo-2-propynyl butylcarbamate (IPBC)],101%
8,CCOC(=O)c1cc(S(=O)(=O)NC2CCN(Cc3ccccc3)CC2)cn1C + CCCCNC(=O)OCC#CI [3-iodo-2-propynyl butylcarbamate (IPBC)],94.9%
9,CCCCc1nnc(NC(=O)COc2ccccc2-c2ccccc2)s1 + CCCCNC(=O)OCC#CI [3-iodo-2-propynyl butylcarbamate (IPBC)],98.6%
10,O=C([O-])c1cc(O)nc2ccc(S(=O)(=O)Nc3ccc(F)cc3)cc12 + CCCCNC(=O)OCC#CI [3-iodo-2-propynyl butylcarbamate (IPBC)],86.9%
11,CSc1ncc(Cl)c(C(=O)N2CCN(Cc3csc(C)n3)CC2)n1 + CCCCNC(=O)OCC#CI [3-iodo-2-propynyl butylcarbamate (IPBC)],110%
12,O=C(COC(=O)c1ncc(Cl)c(Cl)c1Cl)NC(=O)c1ccccc1 + CCCCNC(=O)OCC#CI [3-iodo-2-propynyl butylcarbamate (IPBC)],99.6%
13,Cc1ccc(-c2cnoc2NC(=O)CSC(C)C)cc1 + CCCCNC(=O)OCC#CI [3-iodo-2-propynyl butylcarbamate (IPBC)],96.3%
14,O=C(CCSc1nc(-c2ccco2)cc(C(F)(F)F)n1)NCCN1CCOCC1 + CCCCNC(=O)OCC#CI [3-iodo-2-propynyl butylcarbamate (IPBC)],82.5%
15,Cc1ccc(CNn2nnnc2N)s1 + CCCCNC(=O)OCC#CI [3-iodo-2-propynyl butylcarbamate (IPBC)],85.7%
16,Cc1ccc(N(CCC#N)C(=O)CSc2nnc3c(Cl)cc(Cl)cn23)cc1 + CCCCNC(=O)OCC#CI [3-iodo-2-propynyl butylcarbamate (IPBC)],97%
17,CCN1CCCC1CNC(=O)c1cnc(SC)nc1-c1ccccc1 (centres undefined) + CCCCNC(=O)OCC#CI [3-iodo-2-propynyl butylcarbamate (IPBC)],106%
18,Cc1cccc(C)c1N1C(=O)N(CC(=O)NC(C)C)c2ccccc2S1(=O)=O + CCCCNC(=O)OCC#CI [3-iodo-2-propynyl butylcarbamate (IPBC)],98.1%
19,CSCCC(NC(=O)c1ccc(C(C)(C)C)cc1)C(=O)Nc1ccc(N2CCOCC2)cc1 (centres undefined) + CCCCNC(=O)OCC#CI [3-iodo-2-propynyl butylcarbamate (IPBC)],95.4%
20,CC(C)CCNC(=O)c1cc2n(n1)CC(C)(C(=O)NCc1ccc(F)cc1)N(C)C2=O (centres undefined) + CCCCNC(=O)OCC#CI [3-iodo-2-propynyl butylcarbamate (IPBC)],108%

# Part of the list above, as tab-separated lines:
row	Structure (SMILES)	growth
9	CCCCc1nnc(NC(=O)COc2ccccc2-c2ccccc2)s1 + CCCCNC(=O)OCC#CI [3-iodo-2-propynyl butylcarbamate (IPBC)]	98.6%
17	CCN1CCCC1CNC(=O)c1cnc(SC)nc1-c1ccccc1 (centres undefined) + CCCCNC(=O)OCC#CI [3-iodo-2-propynyl butylcarbamate (IPBC)]	106%
20	CC(C)CCNC(=O)c1cc2n(n1)CC(C)(C(=O)NCc1ccc(F)cc1)N(C)C2=O (centres undefined) + CCCCNC(=O)OCC#CI [3-iodo-2-propynyl butylcarbamate (IPBC)]	108%

# Later entries

row,Structure (SMILES),growth
1,Cc1nc(-c2cccs2)c(CCC(=O)N2CCCC2)s1 + CCCCNC(=O)OCC#CI [3-iodo-2-propynyl butylcarbamate (IPBC)],88.5%
2,O=C(CCSc1nnc(Nc2ccccc2F)s1)Nc1ccccc1F + CCCCNC(=O)OCC#CI [3-iodo-2-propynyl butylcarbamate (IPBC)],89.5%
3,COc1cccc(NC(=O)Cc2csc(C(C)C)n2)c1 + CCCCNC(=O)OCC#CI [3-iodo-2-propynyl butylcarbamate (IPBC)],92.8%
4,CCOC(=O)c1ccc(NC(NC(=O)OC)(c2ccccc2)C(F)(F)F)o1 (centres undefined) + CCCCNC(=O)OCC#CI [3-iodo-2-propynyl butylcarbamate (IPBC)],108%
5,CCC(C(=O)N(CC)Cc1ccc2c(c1)OCCO2)c1ccccc1 (centres undefined) + CCCCNC(=O)OCC#CI [3-iodo-2-propynyl butylcarbamate (IPBC)],97.7%
6,COC1=CC=C2[N]3CC\N=C(NCCO)/C3=CC2=C1 + CCCCNC(=O)OCC#CI [3-iodo-2-propynyl butylcarbamate (IPBC)],97.7%
7,CCS\C1=N\C2=CC=CC=C2C(=O)N1C3=CC=CN=C3 + CCCCNC(=O)OCC#CI [3-iodo-2-propynyl butylcarbamate (IPBC)],99.3%
8,CCN1CCC(N(Cc2cccc(OC)c2)C(=O)Nc2cc(F)ccc2F)CC1 + CCCCNC(=O)OCC#CI [3-iodo-2-propynyl butylcarbamate (IPBC)],102%
9,COc1nc(NS(=O)(=O)c2ccc(C)cc2)nc(C)c1Cl + CCCCNC(=O)OCC#CI [3-iodo-2-propynyl butylcarbamate (IPBC)],90.1%
10,N#CCCN(C(=O)COc1ccc(F)c(Cl)c1)c1ccc2c(c1)OCCO2 + CCCCNC(=O)OCC#CI [3-iodo-2-propynyl butylcarbamate (IPBC)],98.2%
11,CC(C)CC(NS(=O)(=O)c1ccc2c(c1)CCCC(=O)N2)C(=O)N1CCOCC1 (centres undefined) + CCCCNC(=O)OCC#CI [3-iodo-2-propynyl butylcarbamate (IPBC)],110%
12,CC(C)C1C(=O)Nc2ccc(S(=O)(=O)N3CCCCCC3)cc21 (centres undefined) + CCCCNC(=O)OCC#CI [3-iodo-2-propynyl butylcarbamate (IPBC)],102%
13,CCOc1cc(C)nn1-c1ccccc1 + CCCCNC(=O)OCC#CI [3-iodo-2-propynyl butylcarbamate (IPBC)],92.8%
14,COc1cc(NC(=O)c2ccc3c(c2)NC(=O)CS3)cc(OC)c1OC + CCCCNC(=O)OCC#CI [3-iodo-2-propynyl butylcarbamate (IPBC)],107%
15,Cn1ccc(NC(=O)CCCc2nc(O)c3ccccc3n2)n1 + CCCCNC(=O)OCC#CI [3-iodo-2-propynyl butylcarbamate (IPBC)],107%
16,CC(=O)ON1C(C)(C)Cc2noc(N)c2C1(C)C + CCCCNC(=O)OCC#CI [3-iodo-2-propynyl butylcarbamate (IPBC)],86.6%
17,COc1ccc(NC(=O)c2cccnc2O)cc1N1CCCCC1=O + CCCCNC(=O)OCC#CI [3-iodo-2-propynyl butylcarbamate (IPBC)],96.4%
18,COc1ccc(C(=O)OC(C)c2ccccc2Cl)cc1S(=O)(=O)N1CCCC1 (centres undefined) + CCCCNC(=O)OCC#CI [3-iodo-2-propynyl butylcarbamate (IPBC)],93.3%
19,CCc1cccc(C)c1NC(=O)Cn1c(C(=O)OC)cc2sccc21 + CCCCNC(=O)OCC#CI [3-iodo-2-propynyl butylcarbamate (IPBC)],82.5%
